Test results taken from PubChem BioAssay AID485314 (National Center for Advancing Translational Sciences (NCATS), 2010).
Out of some 340,000 compounds screened, about 4,500 (1.3%) were called active. The shares of active, inactive and inconclusive entries below differ from those in the screen. Calls come from the whole dose curve; as a rule, active = well fitted inhibition curve with a large enough effect; inconclusive = small, poorly fitted or top-dose-only effect, or another doubt; inactive = no such curve, though single readings can be large or run the other way. Potencies of inconclusive entries are doubtful fits and often do not repeat.

Molecular target: DNA polymerase beta (Homo sapiens) (UniProt P06746)
Assay: qHTS Assay for Inhibitors of DNA Polymerase Beta
Conditions: Pol beta primer extension/strand displacement, fluorescence kinetic; activity change, negative = inhibition: at 114 µM (top of the series)
Method in brief: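 Pol beta (10 nM) and compounds were preincubated 15 min at room temperature, then 50 nM substrate (final) started primer extension/strand displacement. Reads were taken at 0 and 10 min; concentration-response data were fitted to a four-parameter Hill equation.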
% is set by controls: 0 for no effect and ±100 for the full control effect; potency is the fitted concentration of half-maximal effect.

| SMILES | Potency | activity change, negative = inhibition |
| --- | --- | --- |
| COc1cc(CC2C(=O)N(C)C(=O)N(C)C2=O)ccc1OCc1ccccc1 | inactive |  |
| Cc1cc(/C=C2\C(=O)NC(=O)N(c3ccccc3)C2=O)c(C)n1-c1ccc(C(=O)O)c(Cl)c1 | active: 22.4 µM |  |
| Cc1cc(C)cc(NC(=O)Cn2cc(C(=O)c3cccs3)c3ccccc32)c1 | inconclusive: 31.6 µM [inhibitor, partial curve] |  |
| COc1ccc2c3c([nH]c2c1)C(C)NCC3 (centres undefined) | inconclusive: 28.2 µM [inhibitor, full curve] |  |
| Cc1ccc(/C=C2\C(=O)NC(=S)N(c3ccc(F)cc3)C2=O)s1 | inconclusive: 79.4 µM [inhibitor, single point] |  |
| C/C(=N\NC(=O)c1ccncc1)c1c(O)n(-c2ccccc2)c(=O)[nH]c1=O | inconclusive: 79.4 µM [inhibitor, single point] |  |
| Cc1ccc2c(c1)C1CN(C)CCC1N2C(=O)Cn1nnc(-c2ccccc2F)n1 (centres undefined) | inconclusive: 39.8 µM [inhibitor, single point] |  |
| C/C(=N\Nc1cccc2ccccc12)c1c(O)n(Cc2ccccc2)c(=O)[nH]c1=O | inactive |  |
| O=C1NC(=O)N(c2ccc(Cl)cc2)C(=O)/C1=C/c1coc2ccc(O)cc2c1=O | inconclusive: 11.2 µM [inhibitor, full curve, poor fit] |  |
| C=CCn1c(O)c(C=Nc2ccc(N(CC)CC)cc2)c(=O)[nH]c1=O | inconclusive: 35.5 µM [inhibitor, single point] |  |
| c1ccc2c(c1)[I+]c1ccccc1-2 | inconclusive: 28.2 µM [inhibitor, single point] |  |
| COc1ccc2c(c[n+](C)c3c4cc5c(cc4ccc23)OCO5)c1OC | active: 28.2 µM |  |
| Cc1ccc(-c2[nH]c(=S)[nH]c(=O)c2C#N)cc1 | inactive |  |
| CCOC(=O)c1c(-n2c(C)cc(/C=C3\C(=O)NC(=O)N(C)C3=O)c2C)sc2c1CCCC2 | inactive |  |
| CCOc1ccc(-n2c(O)c(/C=C3\C=Nc4ccccc43)c(=O)[nH]c2=O)cc1 | inconclusive: 89.1 µM [inhibitor, single point] |  |
| O=C(CCN1CCCCC1)Nc1ccc(Br)cc1C(=O)c1ccccc1 | inactive |  |
| Cc1c(N=Cc2c(O)n(Cc3ccco3)c(=O)[nH]c2=O)c(=O)n(-c2ccccc2)n1C | inconclusive: 14.1 µM [inhibitor, full curve] |  |
| COc1cccc(N2C(=O)NC(=O)/C(=C/c3ccc([N+](=O)[O-])s3)C2=O)c1 |  | inconclusive: -100% [inhibitor] |
| O=C1NC(=O)C(=Cc2ccc3ccccc3c2)C(=O)N1 | inactive |  |
| COc1ccc(/C=C2\C(=O)NC(=O)N(Cc3ccccc3)C2=O)c(OC)c1OC | inactive |  |
| N[C@@H](Cc1cc(Br)c(O)c(Br)c1)C(=O)O | active: 22.4 µM |  |
| CN(C)c1ccc(/C=C2/C(=O)NC(=O)N(Cc3ccco3)C2=O)cc1 | inconclusive: 25.1 µM [inhibitor, partial curve] |  |
| O=C1CC(N2CCC(n3c(=O)[nH]c4ccccc43)CC2)C(=O)N1c1ccc(F)cc1 (centres undefined) | inconclusive: 12.6 µM [inhibitor, partial curve] |  |

| SMILES | Potency | activity change, negative = inhibition |
| --- | --- | --- |
| COCCN(CCOC)C(=O)CCn1c(=O)oc2ccccc21 | inconclusive: 89.1 µM [inhibitor, single point] |  |
| O=[N+]([O-])NC1=NCN(Cc2ccco2)CN1Cc1ccco1 | inconclusive: 100 µM [inhibitor, single point] |  |
| O=C1CN=C(c2ccc(Br)cc2)c2c(sc3c2CCCC3)N1CCN1CCCCC1 | inconclusive: 0.178 µM [inhibitor, full curve, poor fit] |  |
| CCCCn1c(=O)c(C(=O)NCc2ccccc2)c(O)c2ccccc21 | inconclusive: 10 µM [inhibitor, partial curve] |  |
| CCOP(=O)(OCC)C(NC(=O)Nc1ccc(Cl)c(Cl)c1)c1ccccc1 (centres undefined) | inconclusive: 3.98 µM [inhibitor, single point] |  |
| COc1cc(CC2(CCc3ccncc3)C(=O)N(C)C(=O)N(C)C2=O)cc(OC)c1OC | inconclusive: 89.1 µM [inhibitor, single point] |  |
| CN1C(=O)C(Cc2c[nH]c3ccccc23)C(=O)N(C)C1=O | inconclusive: 89.1 µM [inhibitor, single point] |  |
| COc1ccc2c3c([nH]c2c1)C(C)=NCC3 | inconclusive: 35.5 µM [inhibitor, single point] |  |
| Cc1ccc(CCNC(=O)Cn2nc(C)c3c(C)n(-c4ccc(C)cc4)nc3c2=O)cc1 | active: 79.4 µM |  |
| O=c1c2ccccc2nc(/C=C/c2ccccc2)n1-c1ccc(O)cc1 | inactive |  |
| O=C1NC(=S)N(c2ccccc2)C(=O)/C1=C/c1ccco1 | active: 10 µM |  |
| O=C(N/N=C/c1c(O)n(CCc2ccc(F)cc2)c(=O)[nH]c1=O)c1ccccc1 | inactive |  |
| Clc1cccc(C2NCCc3[nH]cnc32)c1 (centres undefined) | inactive |  |
| C[N+]1(C)CCN(c2ccccc2)CC1 | inconclusive: 56.2 µM [inhibitor, single point] |  |
| CC[C@@H](CO)NC(=O)[C@H]1C=C2c3cccc4c3c(cn4C)C[C@H]2N(C)C1 | inconclusive: 39.8 µM [inhibitor, single point] |  |
| CCC(C)N1C(=O)/C(=C/c2ccc3c(c2)CCN3CCCCl)C(=O)NC1=S (centres undefined) | active: 15.8 µM |  |
| CCn1cc2nc(SCc3cc(C)ccc3C)n(Cc3ccc(OC)cc3)c(=O)c2n1 | inconclusive: 39.8 µM [inhibitor, partial curve, poor fit] |  |
| O=C1NC(=O)N(c2ccccc2F)C(=O)/C1=C/c1ccc(Sc2nc3ccccc3[nH]2)o1 | active: 22.4 µM |  |
| CCOC(=O)c1ccc(N2C(=O)c3n[nH]c(-c4cccs4)c3C2c2ccc(Cl)cc2Cl)cc1 (centres undefined) | inconclusive: 89.1 µM [inhibitor, single point] |  |
| Cc1ccc(NC(=O)Cn2c(=O)oc3cc(S(=O)(=O)N4CCCCCC4)ccc32)cc1Cl | inconclusive: 39.8 µM [inhibitor, partial curve] |  |
| COc1ccc(Cn2c(O)c(/C=N/NC(=O)c3ccccc3O)c(=O)[nH]c2=O)cc1 | inactive |  |
| CN(C)c1ccc(C=C2C(=O)NC(=S)NC2=O)cc1[N+](=O)[O-] | inconclusive: 1 µM [inhibitor, full curve, poor fit] |  |
| O=C1NC(=O)N(c2ccccc2)C(=O)/C1=C/c1ccoc1 | inconclusive: 0.501 µM [inhibitor, full curve, poor fit] |  |

Quoted at random: two records from the list, in no set order.

| SMILES | Potency | activity change, negative = inhibition |
| --- | --- | --- |
| CC[C@@H](CO)NC(=O)[C@H]1C=C2c3cccc4c3c(cn4C)C[C@H]2N(C)C1 | inconclusive: 39.8 µM [inhibitor, single point] |  |
| CN(C)c1ccc(C=C2C(=O)NC(=S)NC2=O)cc1[N+](=O)[O-] | inconclusive: 1 µM [inhibitor, full curve, poor fit] |  |

(further entries)

| SMILES | Potency | activity change, negative = inhibition |
| --- | --- | --- |
| NP(=O)(OCC(F)(F)F)Oc1ccc(Cl)cc1 (centres undefined) | inactive |  |
| CN1C(=O)/C(=C\c2ccc(N3CCCCCC3)cc2)C(=O)NC1=S | inactive |  |
| CCCCn1c(=O)c(C(=O)NCc2ccccc2OC)c(O)c2ccccc21 | inactive |  |
| COc1ccc(OCC(=O)N2CCN(CCc3ccncc3)CC2)cc1 | inconclusive: 100 µM [inhibitor, single point] |  |
| O=C1NC(=O)C(=Cc2coc3ccccc3c2=O)C(=O)N1 | inactive |  |
| Cc1ccc(OCC(=O)NCCN2CCN(C(=O)COc3ccc(C)cc3)CC2)cc1 | inconclusive: 89.1 µM [inhibitor, single point] |  |
| C=C(C)[C@H]1Cc2c(ccc3c2O[C@@H]2COc4cc(OC)c(OC)cc4[C@@H]2C3=O)O1 | inconclusive: 39.8 µM [inhibitor, partial curve] |  |
| O=C(N/N=C/c1c(O)n(CCc2ccccc2)c(=O)[nH]c1=O)c1ccccc1 | inconclusive: 79.4 µM [inhibitor, single point] |  |
| O=C(NC1(C(F)(F)F)Oc2ccc(Cl)cc2O1)N1CCC2(CC1)OCCO2 (centres undefined) | active: 14.1 µM |  |
| Cc1cc(C=C2C(=O)N(C)C(=S)N(C)C2=O)c(C)n1C1CCCCC1 | active: 39.8 µM |  |
| CCc1ccc(N2C(=O)NC(=O)/C(=C\c3cc(C)n(-c4cc(C(=O)O)cc(C(=O)O)c4)c3C)C2=O)cc1 | active: 11.2 µM |  |
| Cc1c(C(c2ccc(Br)cc2)c2c(O)c3ccccc3oc2=O)c(=O)n(-c2ccccc2)n1C (centres undefined) | inconclusive: 39.8 µM [inhibitor, single point] |  |
| CCC(=NCCO)c1c(O)n(-c2ccccc2)c(=O)[nH]c1=O | inactive |  |
| COc1ccc(C(Nc2ccccc2)P(=O)(Oc2ccccc2)Oc2ccccc2)cc1 (centres undefined) | inconclusive: 28.2 µM [inhibitor, single point] |  |
| O=C1NC(=O)N(Cc2ccc(F)cc2)C(=O)/C1=C\c1ccc([N+](=O)[O-])s1 |  | inconclusive: -98% [inhibitor] |
| CCn1c(O)c(C=Nc2ccc(N3CCOCC3)cc2)c(=O)n(CC)c1=S | active: 17.8 µM |  |
| O=c1[nH]c(O)c(N=Nc2ccc(SC(F)F)cc2)c(=O)[nH]1 | inconclusive: 56.2 µM [inhibitor, partial curve, poor fit] |  |
| CCC1(C)OC(c2ccccc2)=C/C(=C/C=C2C(=O)NC(=O)NC2=O)O1 (centres undefined) | inconclusive: 25.1 µM [inhibitor, full curve] |  |
| CCN(CCO)c1ccc(N=Cc2c(O)n(C)c(=S)[nH]c2=O)cc1 |  | inconclusive: -32.2% [inhibitor] |
| Oc1ccccc1O | active: 39.8 µM |  |
| CCCC12CN3CC(C)(CN(C1)C3c1c(C)[nH]c(=O)[nH]c1=O)C2=O (centres undefined) | inconclusive: 89.1 µM [inhibitor, single point] |  |
| CN1/C(=C\C=C2C(=O)NC(=S)NC2=O)C(C)(C)c2ccccc21 | inconclusive: 89.1 µM [inhibitor, single point] |  |
| C=Cn1c(P(=S)(N2CCOCC2)N2CCOCC2)cc2c1CCCC2 | inconclusive: 14.1 µM [inhibitor, full curve, poor fit] |  |

Shown tab-delimited: 5 of the compounds above
SMILES	Potency	activity change, negative = inhibition
CN1C(=O)/C(=C\c2ccc(N3CCCCCC3)cc2)C(=O)NC1=S	inactive	
CCCCn1c(=O)c(C(=O)NCc2ccccc2OC)c(O)c2ccccc21	inactive	
O=C1NC(=O)C(=Cc2coc3ccccc3c2=O)C(=O)N1	inactive	
CCc1ccc(N2C(=O)NC(=O)/C(=C\c3cc(C)n(-c4cc(C(=O)O)cc(C(=O)O)c4)c3C)C2=O)cc1	active: 11.2 µM	
CCn1c(O)c(C=Nc2ccc(N3CCOCC3)cc2)c(=O)n(CC)c1=S	active: 17.8 µM	
